# Several values for one entry are separate records, joined by “and”; a condition that tells them apart may be missing. Equal values may be shown once. Inconclusive results, whose numbers are uncertain, are shown with a selection of clear calls. A potency beside an inconclusive call is a rough fit, not a confirmed value. Activity calls are given as the source filed them. The calls were made as follows: active = hit-call score of the fitted dose curve at least 0.9, where 1 is the maximum; inconclusive = response in the unintended direction; inactive = score below 0.9.
# Chains of the proteins cited; added tags and fusions are not shown.
# UniProt P55055, whole entry, looked up: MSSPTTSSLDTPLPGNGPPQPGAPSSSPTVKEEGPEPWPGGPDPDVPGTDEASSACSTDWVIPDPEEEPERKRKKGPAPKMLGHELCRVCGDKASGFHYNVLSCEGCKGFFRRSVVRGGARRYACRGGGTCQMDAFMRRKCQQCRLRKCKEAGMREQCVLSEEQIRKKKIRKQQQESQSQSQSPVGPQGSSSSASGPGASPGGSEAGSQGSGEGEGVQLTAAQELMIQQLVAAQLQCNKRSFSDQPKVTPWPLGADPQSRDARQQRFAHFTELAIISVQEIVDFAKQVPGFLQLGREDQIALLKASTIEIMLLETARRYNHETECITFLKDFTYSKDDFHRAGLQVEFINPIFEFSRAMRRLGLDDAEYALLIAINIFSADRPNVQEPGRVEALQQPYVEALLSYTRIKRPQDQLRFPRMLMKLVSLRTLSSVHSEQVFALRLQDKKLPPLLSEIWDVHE
# Target: Oxysterols receptor LXR-beta (Homo sapiens) (UniProt P55055)
# Experiment: ATG_LXRb_TRANS: Attagene TRANS-FACTORIAL HepG2 Assay for human Liver X Receptor beta (LXRb) (AID 2282981)
# Details: HepG2 Attagene TRANS GAL4-LXRb reporter, mRNA
# Method: ATG_TRANS is a cell-based, multiplexed-readout assay that uses HepG2, a human liver cell line, with measurements taken at 24 hours after chemical dosing in a 24-well plate.ATG_LXRb_TRANS is one of 30 assay component(s) measured or calculated from the ATG_TRANS assay. It is designed to make measurements of mRNA induction, a form of inducible reporter, as detected with fluorescence intensity signals by Reverse transcription polymerase chain reaction (RT-PCR) and Capillary electrophoresis technology.Data from the assay component ATG_LXRb_TRANS was analyzed into 1 assay endpoint. This assay endpoint, ATG_LXRb_TRANS, was analyzed in the positive analysis fitting direction relative to DMSO as the negative control and baseline of activity. Using a type of inducible reporter, measures of mRNA for gain-of-signal activity can be used to understand the reporter gene at the transcription factor-level as they relate to the gene NR1H2. Furthermore, this assay endpoint can be referred to as a primary readout, because this assay has produced multiple assay endpoints where this one serves a reporter gene function. To generalize the intended target to other relatable targets, this assay endpoint is annotated to the nuclear receptor intended target family, where the subfamily is non-steroidal.
# Human liver HepG2 cells are transiently transfected with multiple reporter transcription units (MRTUs) in 6-well plates using FuGene 6 reagent (Roche; 3 ml FuGene/1 mg DNA). The MRTU constructs are regulated by a cis-regulating element (promoter). […] A major difference between the CIS and TRANS system is that in CIS activities of endogenous TFs are measured, whereas the TRANS assay evaluates changes in activities of exogenous, chimeric NR-Gal4 proteins. […] At the end of 24 hour incubation, total RNA was isolated using TriZol reagent (Invitrogen). The isolated RNA is then reverse-transcribed using oligo(dT) primer and Mo-MLV reverse transcriptase (Invitrogen) with DNAse I (Ambion) treatment for 30 min. The one-tenth of the produced cDNA was amplified by PCR using Taq DNA polymerase (Invitrogen) and two reporter sequence-specific primers. The PCR products were fluorescently labeled by primer extension with 6-arboxyfluorescein (6-FAM) 5'-labeled reporter sequence-specific primer (2 min at 95 C, 20 s at 68 C and 10 min at 72 C) and these products were digested with 5U of HpaI (New England Biolabs) for 2h at 37 C. The fragments were purified using Qiaquick PCR columns (Qiagen), analyzed on an ABI 3130xL genetic analyzer (Applied Biosystems) with peak positions identified by using a set of X-rhodamine (ROX)-labeled MapMarker1000 molecular weight standards (BioVentures). The raw capillary electrophoresis data was processed using Attagraph software (Attagene).
Compound,AC50,outcome
Cc1ccccc1[N+](=O)[O-],inconclusive: 49.6 µM,–
COP(=S)(OC)Oc1ccc(S(=O)(=O)N(C)C)cc1,–,inactive
c1nc[nH]n1,–,inactive
O=S(=O)(O)C(F)(F)C(F)(F)C(F)(F)C(F)(F)F,inconclusive: 105 µM and inconclusive: 150 µM,–
O=C1C2(Cl)C3(Cl)C4(Cl)C(Cl)(Cl)C5(Cl)C3(Cl)C1(Cl)C5(Cl)C24Cl (stereo not given),inconclusive: 3.57 µM and inconclusive: 8.23 µM,–
CC(C)N1C(=O)N(c2ccccc2)CSC1=NC(C)(C)C,inconclusive: 0.243 µM,–
O=[N+]([O-])C(Br)(CO)CO,active: 0.00914 µM,–
CC(C)(O)c1cnn2c(-c3ccc(F)c(-c4c(F)cccc4C#N)c3)cnc2n1,inconclusive: 4.98 µM,–
Cl/C=C/Cl,–,inactive
FC(F)OCC(F)(F)C(F)(F)F,inconclusive: 150 µM,–
NC(=O)C(F)(F)C(F)(F)F,inconclusive: 150 µM,–
Nc1nc(N)nc(Cl)n1,–,inactive
CN=C=S,–,inactive
O=[N+]([O-])c1cccc2ccccc12,inconclusive: 19.8 µM,–

Compound,AC50,outcome
O=C(CCl)Nc1ccccc1,–,inactive
CCC1(c2ccc(N)cc2)CCC(=O)NC1=O (stereo not given),inconclusive: 183 µM,–
Oc1c(I)cc(I)cc1I,inconclusive: 100 µM,–
CCOC(=O)/C=C(C)/C=C/C[C@@H](C)CCCC(C)C,inconclusive: 26.7 µM,–
CC(=Cc1ccccc1)[N+](=O)[O-],inconclusive: 20 µM,–
CCOP(=S)(OCC)SCSC(C)(C)C,active: 20.2 µM and active: 27.7 µM,–
CC(C)=CC1C(C(=O)OCc2cccc(Oc3ccccc3)c2)C1(C)C (stereo not given),inconclusive: 168 µM,–
Clc1ccc(-c2ccccc2)cc1,inconclusive: 100 µM,–
Cc1c([N+](=O)[O-])c(C)c([N+](=O)[O-])c(C(C)(C)C)c1[N+](=O)[O-],inconclusive: 100 µM,–
N#CCCC(Br)(C#N)CBr (stereo not given),inconclusive: 5.41 µM,–
C=C(C)C(=O)OCCCCOC(=O)C(=C)C,–,inactive
CCOc1cccc(C2(N3CCN(c4ccccc4)CC3)CCC(C)CC2)c1 (stereo not given),inconclusive: 100 µM,–
ClC1=C(Cl)[C@]2(Cl)[C@@H]3[C@@H]4C[C@@H]([C@H]5O[C@@H]45)[C@@H]3[C@@]1(Cl)C2(Cl)Cl,inconclusive: 48.7 µM,–
CC(C)(C)C(O)(CCc1ccc(Cl)cc1)Cn1cncn1 (stereo not given),inconclusive: 0.0879 µM,–
O=C(O)C1(c2ccc3c(c2)OC[C@H](Cc2ccc(-c4ccccc4)cc2)[C@H]3O)CCCC1,inconclusive: 11 µM,–
CCN(CC)C(=O)SCc1ccc(Cl)cc1,–,inactive
CC(=O)c1cc(C(C)(C)C)cc2c1CCC2(C)C,–,inactive

# Quoted from the listing:
# Value for `CCOP(=S)(OCC)SCSC(C)(C)C` under AC50: active: 20.2 µM and active: 27.7 µM
# Value for `Clc1ccc(-c2ccccc2)cc1` under AC50: inconclusive: 100 µM
